Literature values in patent US20160136193A1, “TREATMENT OF SYMPTOMS ASSOCIATED WITH BACTERIAL VAGINOSIS” (IDH Holding ApS, priority 2003, published 2016).
At least one compound was matched to its structure with a doubt left.

Test system: Bacterial Vaginosis
Settings: 7-day treatment; cited from earlier work

Structure (SMILES): CCC[C@@H]1C[C@@H](C(=O)N[C@@H]([C@H]2O[C@H](SC)[C@H](O)[C@@H](O)[C@H]2O)[C@H](C)Cl)N(C)C1 [Clindamycin]
- effects compared with metronidazole: equal effects as metronidazole
